According to publication PMC3936769:
Results are given in words; binding and its absence hold for the method and conditions named. In cells and extracts the contact can be indirect. A yes stands for co-enrichment or nearness to the bait. Other partners may have been found. Where a sequence is shown, tags or fusion partners need not be part of it.

Target: T1, aIF2-γHis, His-tagged aIF2-γ expressed in Sulfolobus solfataricus (Sulfolobus solfataricus) (UniProt Q980A5)
T1 sequence: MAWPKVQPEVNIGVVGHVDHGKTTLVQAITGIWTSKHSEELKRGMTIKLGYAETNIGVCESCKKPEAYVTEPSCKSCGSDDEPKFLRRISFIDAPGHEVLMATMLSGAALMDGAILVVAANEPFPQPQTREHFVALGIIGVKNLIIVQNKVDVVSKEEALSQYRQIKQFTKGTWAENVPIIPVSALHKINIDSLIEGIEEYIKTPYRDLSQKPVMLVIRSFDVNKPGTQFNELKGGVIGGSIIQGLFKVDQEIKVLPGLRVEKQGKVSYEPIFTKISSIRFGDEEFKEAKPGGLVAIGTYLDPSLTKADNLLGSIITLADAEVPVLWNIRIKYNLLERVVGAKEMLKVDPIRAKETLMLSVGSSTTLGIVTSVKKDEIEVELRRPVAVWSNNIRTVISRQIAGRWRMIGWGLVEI
Test: affinity purification with mass spectrometry; aIF2-γHis captured by Ni-affinity chromatography from extracts of Sso PH1-16(pMJ05-γHis) after prolonged stationary phase and 3 h after outgrowth; buffer A (50 mM Tris-HCl pH 8.0, 300 mM NaCl, 15 mM imidazole, 10 mM β-mercaptoethanol), elution with 250 mM imidazole; Coomassie-stained gel, Sso2509 band identified by mass spectrometry; mock purification from PH1-16(pMJ05)

binding: binds
B1: aIF2-α, endogenous (protein, UniProt Q97Z79 1-266)
chain: MIYSRSKLPSEGEILIATVKQVFDYGSYVSLDEYGGLQAFLPWSEVSSKWVKNIRDVLKENRKVIVKVIRVDRRKGTVDVSLKKVTDDERRKKNLQWKKIQRLDKILELVSQKLKLSEKDAWEQVAWKLEAKYGDPITAIEKAVKEGEKILIDAGVPEIWVKPLLEEASKHAEERKVKMSGLITVRTNEPLGVEKIKEVISKALENIEQDYESLLNIKIYTIGAPRYRVDVVGTNPKEASEALNQIISNLIKIGKEENVDISVVKK
